# PubChem BioAssay AID1224826 – NIAID | 2016
# Test: 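Regulators of Tlr4 signalling leading to Tnf-alpha expression in macrophages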 (primary screen)
# Cell system: RAW264.7 G9 macrophages from mouse bearing reporters for p65 (GFP) and the Tnf promoter (mCherry)
# Knock-down reagent: siRNA pool against mouse genes, 100 nM
# Timing: 16 h of LPS stimulation, after 2 days of siRNA transfection
# Challenge: bacterial lipopolysaccharide (Salmonella minnesota R595), 10 ng/ml
# Read-out: 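Nuclear mCherry signal of the Tnf promoter reporter measured by imaging after background removal, scaled to each plate median and turned into robust z-scores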
# Reading the numbers: Tnf reporter robust z-score: higher = stronger Tnf promoter reporter signal after LPS
# Hit rule: 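Called active when robust z-score is at most -1.3, matching the median of the Tlr4 knock-down control, or over 3; control wells and wells with under 50 cells never active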
# Meaning of the calls: active = Tnf reporter clearly lowered or raised; inactive = no clear change in Tnf reporter
# In all, the deposit lists about 17,000 reagents; below is a part drawn at random. Of all reagents, about 1,110 (6.6%) were called active. 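Active means lowered or raised reporter signal; replicate intensities are raw and not normalised per plate.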 A number with no mark means an inactive call. Not all columns of the deposit are shown.
target,Tnf reporter robust z-score,fewer than 50 cells in well
Acadl (GeneID 11363),-0.08,enough cells in well
Zfp280c (GeneID 208968),1.25,enough cells in well
C1galt1c1 (GeneID 59048),,fewer than 50 cells per well; well left out of calls
Cdadc1 (GeneID 71891),,fewer than 50 cells per well; well left out of calls
Slc25a31 (GeneID 73333),,fewer than 50 cells per well; well left out of calls
Oprm1 (GeneID 18390),0.95,enough cells in well
Prdm4 (GeneID 72843),-0.1,enough cells in well
Avil (GeneID 11567),-1.15,enough cells in well
Tmprss12 (GeneID 75002),,fewer than 50 cells per well; well left out of calls
Ndufa2 (GeneID 17991),2.68,enough cells in well
Cox10 (GeneID 70383),0.47,enough cells in well
Pramel48 (GeneID 320549),1.68,enough cells in well
Spink2 (GeneID 69982),0.43,enough cells in well
Slc22a5 (GeneID 20520),0.91,enough cells in well
Or4a39 (GeneID 258786),-1.51 (active),enough cells in well
Pias4 (GeneID 59004),-0.77,enough cells in well
Igfn1 (GeneID 226438),-1.08,enough cells in well
Trim39 (GeneID 79263),-0.86,enough cells in well
1810009N02Rik (GeneID 69099),-0.69,enough cells in well
Anp32e (GeneID 66471),-0.28,enough cells in well
Vmn1r58 (GeneID 81014),2.6,enough cells in well
Pcdh11x (GeneID 245578),0.15,enough cells in well
Naaa (GeneID 67111),-0.16,enough cells in well
Aip (GeneID 11632),0.56,enough cells in well
Mrgprb4 (GeneID 233230),1.3,enough cells in well
Nfyc (GeneID 18046),-0.62,enough cells in well
Slco4a1 (GeneID 108115),,fewer than 50 cells per well; well left out of calls
Kcne1 (GeneID 16509),0.08,enough cells in well
Mepce (GeneID 231803),2.08,enough cells in well
Otop2 (GeneID 237987),0.74,enough cells in well
Rit1 (GeneID 19769),-0.64,enough cells in well
A630091E08Rik (GeneID 233544),0.7,enough cells in well
Smarce1 (GeneID 57376),-0.19,enough cells in well
Alx4 (GeneID 11695),0.73,enough cells in well
Adamts7 (GeneID 108153),-1.21,enough cells in well
Gabra3 (GeneID 14396),-1.03,enough cells in well

Individual results from above:
Value for Pcdh11x (GeneID 245578) under “fewer than 50 cells in well”: enough cells in well
For “fewer than 50 cells in well”, Tmprss12 (GeneID 75002) has fewer than 50 cells per well; well left out of calls
Result for Ndufa2 (GeneID 17991) under “Tnf reporter robust z-score”: 2.68
Kcne1 (GeneID 16509), fewer than 50 cells in well = enough cells in well

Further reagents follow.
target,Tnf reporter robust z-score,fewer than 50 cells in well
Mrpl10 (GeneID 107732),-1.37 (active),enough cells in well
Zscan22 (GeneID 232878),1.21,enough cells in well
Lsm3 (GeneID 67678),-0.61,enough cells in well
Lrrc9 (GeneID 78257),2.27,enough cells in well
Rpl26 (GeneID 19941),,fewer than 50 cells per well; well left out of calls
Golga7 (GeneID 57437),0.68,enough cells in well
Sidt2 (GeneID 214597),-0.49,enough cells in well
Klk1b26 (GeneID 16618),-0.45,enough cells in well
Mib2 (GeneID 76580),,fewer than 50 cells per well; well left out of calls
Gjc2 (GeneID 118454),-0.77,enough cells in well
Ascl2 (GeneID 17173),,fewer than 50 cells per well; well left out of calls
Zfp334 (GeneID 228876),1.34,enough cells in well
Ubxn1 (GeneID 225896),0.02,enough cells in well
Bhlhe22 (GeneID 59058),-0.83,enough cells in well
Sec62 (GeneID 69276),,fewer than 50 cells per well; well left out of calls
Ist1 (GeneID 71955),,fewer than 50 cells per well; well left out of calls
Trim23 (GeneID 81003),-0.62,enough cells in well
Or5w1 (GeneID 259032),-0.16,enough cells in well
Hpgd (GeneID 15446),0.58,enough cells in well
Pcdhb5 (GeneID 93876),-0.82,enough cells in well
Helb (GeneID 117599),0.16,enough cells in well
Zfp804a (GeneID 241514),0.96,enough cells in well
Zbed4 (GeneID 223773),1.93,enough cells in well
Sh2d7 (GeneID 244885),,fewer than 50 cells per well; well left out of calls
Rxrg (GeneID 20183),1.24,enough cells in well
Abca8a (GeneID 217258),-0.88,enough cells in well
E130308A19Rik (GeneID 230259),,fewer than 50 cells per well; well left out of calls
Dmac2l (GeneID 68055),-0.6,enough cells in well
Orc1 (GeneID 18392),0.47,enough cells in well
Ntm (GeneID 235106),0.53,enough cells in well
Tram2 (GeneID 170829),-0.62,enough cells in well
Slc30a4 (GeneID 22785),,fewer than 50 cells per well; well left out of calls
Agrn (GeneID 11603),-0.95,enough cells in well
Or8b101 (GeneID 258416),3.02 (active),enough cells in well
Krt84 (GeneID 16680),0.51,enough cells in well
Galnt9 (GeneID 231605),0.58,enough cells in well
Mylk (GeneID 107589),0.13,enough cells in well
Fgb (GeneID 110135),-0.79,enough cells in well
Hnf1b (GeneID 21410),-0.46,enough cells in well
